These are yes or no findings as the source states them, for the method shown. In cells and extracts the contact can be indirect. Some entries that bind do so weakly or less than the wild type.
Biological target: GST-karyopherin β (GST-KPNB) (porcine) (UniProt F1RWJ5)
Assay: pull-down; 10 µg GST protein, glutathione agarose beads and reticulocyte lysate with 35S-labelled KPNA; 50 mM Tris-HCl, 150 mM NaCl, 5 mM EGTA, 1% Triton X-100, pH 7.3, 2 h at 4°C; three PBS washes; autoradiography; only the target purified

The chains behind the UniProt entries cited, without tags or fusion partners. Where a name states a change or a piece, a line headed by the entry shows the natural chain unless it says otherwise. A line that says so, or that is headed by a name, gives the form on record, which may keep a tag or linker.
GST-karyopherin β (GST-KPNB) (F1RWJ5, form named): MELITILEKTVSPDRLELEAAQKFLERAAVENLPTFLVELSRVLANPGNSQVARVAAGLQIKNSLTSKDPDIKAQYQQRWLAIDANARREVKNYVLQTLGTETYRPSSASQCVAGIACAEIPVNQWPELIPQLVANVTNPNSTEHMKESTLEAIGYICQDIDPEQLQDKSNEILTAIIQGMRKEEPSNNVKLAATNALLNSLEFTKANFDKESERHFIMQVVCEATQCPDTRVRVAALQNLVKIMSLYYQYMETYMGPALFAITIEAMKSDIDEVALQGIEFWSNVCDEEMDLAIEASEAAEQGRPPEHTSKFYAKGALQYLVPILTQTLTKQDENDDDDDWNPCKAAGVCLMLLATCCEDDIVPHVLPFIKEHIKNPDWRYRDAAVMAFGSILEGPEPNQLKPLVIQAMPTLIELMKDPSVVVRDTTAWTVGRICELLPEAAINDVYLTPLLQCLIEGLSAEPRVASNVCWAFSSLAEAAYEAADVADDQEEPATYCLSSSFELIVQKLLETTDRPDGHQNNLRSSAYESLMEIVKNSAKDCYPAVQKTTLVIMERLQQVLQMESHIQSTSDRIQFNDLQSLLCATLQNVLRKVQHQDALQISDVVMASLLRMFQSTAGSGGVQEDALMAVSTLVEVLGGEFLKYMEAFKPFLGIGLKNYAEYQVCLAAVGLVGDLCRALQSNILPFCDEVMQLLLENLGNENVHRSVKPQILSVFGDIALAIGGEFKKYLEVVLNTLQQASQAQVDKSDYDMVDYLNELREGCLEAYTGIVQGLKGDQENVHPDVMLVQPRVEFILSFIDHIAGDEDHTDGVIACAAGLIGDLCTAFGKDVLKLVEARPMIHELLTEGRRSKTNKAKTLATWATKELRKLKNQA
UniProt C6K7I2: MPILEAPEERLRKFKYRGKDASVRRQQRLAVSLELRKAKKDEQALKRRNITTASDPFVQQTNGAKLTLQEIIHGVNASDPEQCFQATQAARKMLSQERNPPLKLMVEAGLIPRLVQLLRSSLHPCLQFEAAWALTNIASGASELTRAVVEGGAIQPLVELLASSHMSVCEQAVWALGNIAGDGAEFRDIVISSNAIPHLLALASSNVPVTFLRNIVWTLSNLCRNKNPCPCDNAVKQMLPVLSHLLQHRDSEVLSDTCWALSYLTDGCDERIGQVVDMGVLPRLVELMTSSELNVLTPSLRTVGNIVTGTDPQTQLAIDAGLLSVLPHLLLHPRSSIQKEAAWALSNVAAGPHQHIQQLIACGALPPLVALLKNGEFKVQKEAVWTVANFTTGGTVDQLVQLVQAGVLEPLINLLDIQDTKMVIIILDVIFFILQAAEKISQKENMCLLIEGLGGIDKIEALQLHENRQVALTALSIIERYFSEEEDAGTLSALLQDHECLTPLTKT
S35-labeled porcine KPNA1 (from the GFP-tagged vector) (A0ACM8QJN5, form named): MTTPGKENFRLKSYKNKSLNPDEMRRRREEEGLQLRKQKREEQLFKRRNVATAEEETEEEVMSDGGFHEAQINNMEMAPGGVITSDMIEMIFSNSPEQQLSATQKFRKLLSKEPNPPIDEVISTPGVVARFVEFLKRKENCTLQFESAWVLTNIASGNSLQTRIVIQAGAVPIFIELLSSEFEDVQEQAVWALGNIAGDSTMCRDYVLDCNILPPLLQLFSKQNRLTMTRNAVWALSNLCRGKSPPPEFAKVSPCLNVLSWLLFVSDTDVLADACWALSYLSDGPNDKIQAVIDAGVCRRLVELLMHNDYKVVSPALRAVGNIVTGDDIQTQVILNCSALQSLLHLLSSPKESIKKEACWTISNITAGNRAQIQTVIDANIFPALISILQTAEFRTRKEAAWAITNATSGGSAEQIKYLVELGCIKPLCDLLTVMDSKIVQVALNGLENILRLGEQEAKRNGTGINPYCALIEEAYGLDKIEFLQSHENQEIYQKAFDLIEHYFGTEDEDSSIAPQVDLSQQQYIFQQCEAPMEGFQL

S35-labeled porcine KPNA7 (from the GFP-tagged vector) (from UniProt C6K7I2 1-507)
binding: binds

S35-labeled porcine KPNA1 (from the GFP-tagged vector) (from UniProt A0ACM8QJN5 1-538)
binding: binds

Reference: paper PMC3374799
